From patent US20140011778A1, “2-METHYLENE-19,23,24-TRINOR-1ALPHA-HYDROXYVITAMIN D3” (Wisconsin Alumni Research Foundation, priority 2011, published 2014)
“Also recorded” adds a separate entry of the source. Like-named read-outs stand apart in the source and are kept apart here. At least one structure is not confirmed: it was looked up by name or label, or the drawing left a doubt.

What was measured:
[1] = target: T1, Full-length recombinant rat receptor (vitamin D receptor) (Rattus norvegicus, UniProt P13053); conditions: comparison compound from an earlier filing; native hormone/compound; cited from earlier work
T1 construct: Full-length recombinant rat receptor was expressed in E. coli; histidine tag (C); made in house; host or cells: E. coli BL21(DE3) Codon Plus RIL
T1 sequence (P13053 1-423): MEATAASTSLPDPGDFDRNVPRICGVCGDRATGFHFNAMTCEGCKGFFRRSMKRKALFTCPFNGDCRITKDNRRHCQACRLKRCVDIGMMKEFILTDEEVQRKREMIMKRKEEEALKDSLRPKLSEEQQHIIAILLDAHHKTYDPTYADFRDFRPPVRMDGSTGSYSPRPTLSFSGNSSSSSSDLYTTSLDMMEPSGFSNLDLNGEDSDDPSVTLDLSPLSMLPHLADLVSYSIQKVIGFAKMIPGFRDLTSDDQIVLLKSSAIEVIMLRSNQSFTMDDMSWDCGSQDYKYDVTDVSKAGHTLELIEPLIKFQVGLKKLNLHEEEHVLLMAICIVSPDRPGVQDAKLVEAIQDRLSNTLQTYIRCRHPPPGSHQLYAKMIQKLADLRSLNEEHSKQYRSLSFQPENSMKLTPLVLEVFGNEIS

[2] = system: Human promyelocytic leukemia (HL60) cells; conditions: comparison compound from an earlier filing, cited from earlier work; for HL-60 Differentiation (Relative Activity): native hormone/compound; for EC50: read-out: HL-60 Differentiation, EC50
[3] = system: 24-hydroxylase (24OHase) gene promoter; conditions: comparison compound from an earlier filing, cited from earlier work; for 24OHase Transcription (Relative Activity): native hormone/compound; for EC50: read-out: 24OHase Transcription, EC50
[4] = target: T1, Full-length recombinant rat receptor (vitamin D receptor); assay: Vitamin D receptor competitive binding; conditions: for Competitive VDR Binding (Relative Activity): (value for native hormone 1,25(OH)2D3)/(value for working example), same assay; for binding to the vitamin D receptor compared with native hormone: FIGS. 1 and 6
Experimental: Full-length recombinant rat receptor was expressed in E. coli BL21(DE3) Codon Plus RIL cells and purified to homogeneity using two different column chromatography systems. The first system was a nickel affinity resin that utilizes the C-terminal histidine tag on this protein. The protein that was eluted from this resin was further purified using ion exchange chromatography (S-Sepharose Fast Flow). Aliquots of the purified protein were quick frozen in liquid nitrogen and stored at −80° C. until use. For use in binding assays, the protein was diluted in TEDK50 (50 mM Tris, 1.5 mM EDTA, pH 7.4, 5 mM DTT, 150 mM KCl) with 0.1% Chaps detergent. The receptor protein and ligand concentration was optimized such that no more than 20% of the added radiolabeled ligand was bound to the receptor.
Unlabeled ligands were dissolved in ethanol and the concentrations determined using UV spectrophotometry (1,25(OH)2D3: molar extinction coefficient=18,200 and λmax=265 nm; Analogs: molar extinction coefficient=42,000 and λmax=252 nm). Radiolabeled ligand (^3H-1,25(OH)2D3, ˜159 Ci/mmole) was added in ethanol at a final concentration of 1 nM.
Radiolabeled and unlabeled ligands were added to 100 mcl of the diluted protein at a final ethanol concentration of ≦10%, mixed and incubated overnight on ice to reach binding equilibrium. The following day, 100 mcl of hydroxylapatite slurry (50%) was added to each tube and mixed at 10-minute intervals for 30 minutes. The hydroxylapatite was collected by centrifugation and then washed three times with Tris-EDTA buffer (50 mM Tris, 1.5 mM EDTA, pH 7.4) containing 0.5% Titron X-100. After the final wash, the pellets were transferred to scintillation vials containing 4 ml of Biosafe II scintillation cocktail, mixed and placed in a scintillation counter. Total binding was determined from the tubes containing only radiolabeled ligand.

[5] = system: Human promyelocytic leukemia (HL60) cells; assay: HL-60 differentiation (nitro blue tetrazolium reduction); type: cell-based; conditions: FIGS. 2 and 7
Experimental: The study drugs were dissolved in ethanol and the concentrations determined using UV spectrophotometry. Serial dilutions were prepared so that a range of drug concentrations could be tested without changing the final concentration of ethanol (≦0.2%) present in the cell cultures.
Human promyelocytic leukemia (HL60) cells were grown in RPMI-1640 medium containing 10% fetal bovine serum. The cells were incubated at 37° C. in the presence of 5% CO2.
HL60 cells were plated at 1.2×10^5 cells/ml. Eighteen hours after plating, cells in duplicate were treated with the drug. Four days later, the cells were harvested and a nitro blue tetrazolium reduction assay was performed (Collins et al., 1979; J. Exp. Med. 149:969-974). The percentage of differentiated cells was determined by counting a total of 200 cells and recording the number that contained intracellular black-blue formazan deposits. Verification of differentiation to monocytic cells was determined by measuring phagocytic activity (data not shown).

[6] = system: 24-hydroxylase (24OHase) gene promoter; assay: In vitro transcription assay (24OHase promoter-luciferase in ROS 17/2.8 cells); type: cell-based; conditions: FIGS. 3 and 8
Experimental: Transcription activity was measured in ROS 17/2.8 (bone) cells that were stably transfected with a 24-hydroxylase (24OHase) gene promoter upstream of a luciferase reporter gene (Arbour et al., 1998). Cells were given a range of doses. Sixteen hours after dosing, the cells were harvested and luciferase activities were measured using a luminometer. RLU=relative luciferase units.

Sprague-Dawley rats [7] = assay: Bone calcium mobilization (serum calcium); type: in vivo; conditions: rat, four intraperitoneal doses, 780 and 7020 pmol
Sprague-Dawley rats [8] = assay: Intestinal calcium transport (everted gut sac); type: in vivo; conditions: rat; for intestinal calcium transport activity: four intraperitoneal doses
Experimental: Male, weanling Sprague-Dawley rats were placed on Diet 11 (0.47% Ca) diet+AEK oil for one week followed by Diet 11 (0.02% Ca)+AEK oil for 3 weeks. The rats were then switched to a diet containing 0.47% Ca for one week followed by two weeks on a diet containing 0.02% Ca. Dose administration began during the last week on 0.02% calcium diet. Four consecutive intraperitoneal doses were given approximately 24 hours apart. Twenty-four hours after the last dose, blood was collected from the severed neck and the concentration of serum calcium determined as a measure of bone calcium mobilization. The first 10 cm of the intestine was also collected for intestinal calcium transport analysis using the everted gut sac method.

Row | Compound | Competitive VDR Binding (Relative Activity) [1] | HL-60 Differentiation (Relative Activity) [2] | EC50 [2] [nM] | 24OHase Transcription (Relative Activity) [3] | EC50 [3] [nM] | Competitive VDR Binding (Relative Activity) [4] | binding to the vitamin D receptor compared with native hormone [4] | less active than (20R)-2MbisP in binding to the vitamin D receptor ([4]; ratio of relative activities 0.49/0.05) | differentiation of HL-60 cells compared with native hormone [5] | transcription of the 24-hydroxylase gene compared with native hormone [6] | bone calcium mobilization activity (Sprague-Dawley rats [7]) | elevation of the serosal/mucosal calcium compared with native hormone (Sprague-Dawley rats [8]; 7020 pmol (~20 mcg/kg body weight)) | intestinal calcium transport activity (Sprague-Dawley rats [8])
1 | C=C1C(O)CC(=CC=C2CCCC3(C)C2CCC3C(C)CCC)CC1O [2MtrisP, 2-methylene-19-nor-(20S)-1α-hydroxytrishomopregnacalciferol] | 0.5 | 1.2 | 1.9 | 0.06 | 2.4 |  |  |  |  |  |  |  | 
2 | C=C1C(O)CC(=CC=C2CCCC3(C)C2CCC3C(C)CC)CC1O [(20R)-2MbisP, 2-methylene-19-nor-(20R)-1α-hydroxybishomopregnacalciferol] | 0.49 | 0.18 | 20 | 0.05 | 4.2 |  |  |  |  |  |  |  | 
3 | C=C1[C@H](O)CC(=C/C=C2\CCC[C@]3(C)[C@@H]([C@H](C)CC(C)C)CC[C@@H]23)C[C@H]1O [RMB, (20R)-2-methylene-19,23,24-trinor-1α-hydroxyvitamin D3] |  |  |  |  |  | 0.05 | lower affinity than that of the native hormone; also recorded: strongly bind the vitamin D receptor, albeit with lower affinity relative to the native hormone | approximately 10 times | less than the native hormone; also recorded: more pronounced decreases | Reduced in vitro activity; also recorded: more pronounced decreases | essentially inactive on releasing bone calcium stores; also recorded: neither SMB nor RMB show activity | higher than that of the native hormone at a dose of 87 pmol but less than the ratio of the native hormone at a dose of 780 pmol | active in stimulating intestinal calcium transport
4 | C=C1[C@H](O)CC(=C/C=C2\CCC[C@]3(C)[C@@H]([C@@H](C)CC(C)C)CC[C@@H]23)C[C@H]1O [SMB, (20S)-2-methylene-19,23,24-trinor-1α-hydroxyvitamin D3] |  |  |  |  |  | 0.5 | slightly lower affinity relative to 1,25(OH)2D3; also recorded: strongly bind the vitamin D receptor, albeit with lower affinity relative to the native hormone |  | less active than the native hormone | less active than the native hormone | inactive in releasing bone calcium stores; also recorded: neither SMB nor RMB show activity |  | active in vivo in increasing intestinal calcium transport
